# From the supplement of paper PMC10338343
# ± gives the standard deviation. This is a selection; strong and weak results do not stand in their true shares. Many of these values have a large error. Some of the results follow.
# Legend:
# [1] = tested on: MILI (PIWIL2) piRISC loaded with L1MC piRNA (26 nt); test: pre-steady-state target cleavage rate (min^-1); higher = faster piRNA-guided slicing of the target; settings: guide: L1MC piRNA 5'p-UAACUAAAUACUAUGCAAGCUGUAGG
# Summary of the method: (§1)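 A transcribed, DNA-blocked target RNA library (0.1 nM) and 1 nM active affinity-purified piRISC bearing one synthetic guide were incubated in HEPES–potassium acetate buffer at 33 °C for 0–8 or 0–960 min, either with or without 500 nM GTSF1 partner protein. Uncleaved targets were sequenced, normalised to depth and to weakly complementary targets, and pooled over three trials, with k3 capped at 0.0001 min^-1. The pre-steady-state cleavage rate was derived with a burst-and-steady-state fit.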
# [2] = tested on: MIWI (PIWIL1) piRISC loaded with L1MC piRNA (30 nt); test: as above; settings: guide: L1MC piRNA 5'p-UAACUAAAUACUAUGCAAGCUGUAGGUCCU
# Summary of the method: as §1
# [3] = tested on: EfPiwi piRISC loaded with L1MC piRNA (26 nt); test: pre-steady-state target cleavage rate (min^-1); guide: L1MC piRNA 5'p-UAACUAAAUACUAUGCAAGCUGUAGG; MIWI and MILI are mouse PIWI proteins and EfPiwi is from a freshwater sponge; tags in brackets are library labels; higher = faster piRNA-guided slicing of the target
# Summary of the method: as §1
# [4] = auxiliary factor: none (no GTSF1)
# [5] = auxiliary factor: 500 nM Ephydatia muelleri Gtsf1
# [6] = auxiliary factor: 500 nM mouse GTSF1
# [7] = auxiliary factor: none (no Gtsf1)
Sequence,"pre-steady-state target cleavage rate [1, 4]","pre-steady-state target cleavage rate [2, 4]","pre-steady-state target cleavage rate [3, 5]","pre-steady-state target cleavage rate [1, 6]","pre-steady-state target cleavage rate [2, 6]","pre-steady-state target cleavage rate [3, 7]"
UCCUCCUACAGCUUCCAUAGUAUUUACAAA,0.000447 ± 0.012,0.000874 ± 0.0074,0.00265 ± 0.0026,,,
UCCUGGUACAGCUUGGAUAGUAUUUUCAAA,0.00214 ± 0.0048,0.00123 ± 0.0058,0.000908 ± 0.01,,,
UCCUGGAUGUCGAACCAGAGUAUUUAGUUA,0.000314 ± 0.011,0.000307 ± 0.014,< 0.0001,,,
UCCUGGAUGUCCAUGCAUAGUAUUUACUUA,0.00104 ± 0.006,0.00127 ± 0.0057,0.000352 ± 0.009,,,
UCCUCCUACAGCUUGCAUAGAUAUUUCAAA,0.000745 ± 0.0055,0.000566 ± 0.0083,0.00158 ± 0.0036,,,
UCCUGGUACAGCAUGCAUAGUAUUUUCAAA,0.000943 ± 0.0089,0.000373 ± 0.011,0.000943 ± 0.0045,,,
UCCUGGAUGUCGAAGCAUACAAUUUAGUUA,0.000509 ± 0.0083,0.000597 ± 0.0097,0.000173 ± 0.015,,,
UCCUGGAUGUCGAUGCUUAGUAUUUUGUUA,0.000986 ± 0.0069,0.00036 ± 0.014,0.000312 ± 0.0095,,,
UCCUGGAUGUCGAACGUAAGUAUUUCAGUUA,0.000271 ± 0.016,0.000249 ± 0.023,< 0.0001,,,
UCCUGGAUCAGCAACCAUAGUAUUUAGUAA,0.000878 ± 0.0068,0.000367 ± 0.01,0.000441 ± 0.0078,,,
UCCUGCUACAGCUUGCAUAGAUUUUUCAAA,0.00092 ± 0.007,0.000224 ± 0.016,0.000801 ± 0.003,,,
UCCUCCUACAGCUUGCAUACAAUUUUCAAA,0.000677 ± 0.0077,0.000297 ± 0.012,0.000327 ± 0.0098,,,
UCCUGGAUGUCGAAGCAAGUAUUUAGUUA,0.000657 ± 0.0063,0.0012 ± 0.006,0.0001 ± 0.039,,,
UCCUGGAUGUCGAAGCAUAGUAUAUUGUUA,0.000992 ± 0.0059,0.000429 ± 0.012,0.000204 ± 0.016,,,
UCCUGGAUGAGCUUCCAUACUAUUUAGUUA,0.000429 ± 0.012,0.00087 ± 0.0057,0.000388 ± 0.0065,,,
UCCUCCUACACGAUGCAUAGUAUUUUCAAA,0.00116 ± 0.0056,0.000662 ± 0.011,0.0015 ± 0.0045,,,
UCCUGCUACAGCUACGAUAGUAUUUAGAAA,0.000656 ± 0.0077,0.000324 ± 0.0097,0.000288 ± 0.012,,,
UCCUGGAUGUCGAACCAUACUAUUUACUUA,,,,0.000222 ± 0.024,0.000118 ± 0.035,0.00023 ± 0.02
UCCUGGAUGUCCUUGCAUAGUUUUUUGUUA,0.000884 ± 0.0079,0.00155 ± 0.0046,0.000342 ± 0.0086,,,

Sequence,"pre-steady-state target cleavage rate [1, 4]","pre-steady-state target cleavage rate [2, 4]","pre-steady-state target cleavage rate [3, 5]","pre-steady-state target cleavage rate [1, 6]","pre-steady-state target cleavage rate [2, 6]","pre-steady-state target cleavage rate [3, 7]"
UCCUGGAUGAGCUUGCAUAGUAUUAUGUAA,0.000663 ± 0.0072,0.00181 ± 0.0034,0.000677 ± 0.0063,,,
UCCUGCUACAGCUUGGUUAGUAUUUUCAAA,0.000647 ± 0.012,0.000629 ± 0.011,0.000418 ± 0.006,,,
UCCUGGUACAGCUUGCAUACAUUUUAGAAA,0.00167 ± 0.0064,0.000306 ± 0.009,0.000305 ± 0.012,,,
UCCUGCUACAGCUUGCAUAGAUAUUUCAAA,0.000684 ± 0.0095,0.000251 ± 0.013,0.00184 ± 0.0032,,,
UCCUGGAUGUCGAACCAAAGUAUUUAGAUA,< 0.0001,0.000332 ± 0.014,0.00023 ± 0.017,,,
UCCUCCUACAGCUUGCAUAGUAAUAAGUUA,0.00183 ± 0.0039,0.00136 ± 0.0038,0.0073 ± 0.004,,,
UCCUGGUACAGCAACCAUAGUAUUUAGUAA,,0.0016 ± 0.0048,0.00169 ± 0.0077,0.313 ± 0.064,,
UCCUCCUACAGCUUGCAUACAAUUUACAAA,0.000308 ± 0.0082,0.000481 ± 0.012,0.00205 ± 0.0061,,,
UCCUGGAUGUCGAUGCAAAGUAUUUAGUAA,,0.000817 ± 0.01,0.00117 ± 0.0051,0.00334 ± 0.0047,,
UCCUGGAUGUCCUUGCAUUCAAUUUAGUAA,0.000423 ± 0.013,0.000735 ± 0.01,0.000161 ± 0.015,,,
UCCUGGAUGUCGAAGCAUAGAAUUAAGUUA,0.000207 ± 0.022,0.000191 ± 0.023,0.000373 ± 0.016,,,
UCCUGCUACAGGAUGCAUAGUAUUUUCAAA,0.000457 ± 0.011,0.000435 ± 0.015,0.000766 ± 0.003,,,
UCCUGGAUGUCCUUGCAUAGAAUAUAGUUA,0.00134 ± 0.0046,0.000971 ± 0.0076,0.00145 ± 0.0073,,,
UCCUGGAUGUCCUUGCAAAGUAUUUACUUA,0.00195 ± 0.0031,0.00204 ± 0.0026,,,,0.000277 ± 0.023
UCCUGGAUCAGCUUGCAUAGAUUUUAGUAA,0.00189 ± 0.0036,0.0024 ± 0.0024,0.000872 ± 0.0037,,,
UCCUGGAUGUCGAUGCAUACAUUUUAGUUA,0.000342 ± 0.017,0.000212 ± 0.025,0.00011 ± 0.029,,,
UCCUGGAACAGCAAGCAUAGUAUUUACAAA,0.000906 ± 0.0075,0.000988 ± 0.009,0.00166 ± 0.0046,,,
UCCUGGAUGUCGAAGCAUAGUAUUUAUUA,0.000121 ± 0.053,0.000581 ± 0.012,0.000288 ± 0.012,,,

# Complete entries as entered above.
# UCCUGGAUGUCCUUGCAAAGUAUUUACUUA is listed as pre-steady-state target cleavage rate [1, 4] = 0.00195 ± 0.0031; pre-steady-state target cleavage rate [2, 4] = 0.00204 ± 0.0026; pre-steady-state target cleavage rate [3, 7] = 0.000277 ± 0.023
# UCCUGGAUGUCCUUGCAUUCAAUUUAGUAA is listed as pre-steady-state target cleavage rate [1, 4] = 0.000423 ± 0.013; pre-steady-state target cleavage rate [2, 4] = 0.000735 ± 0.01; pre-steady-state target cleavage rate [3, 5] = 0.000161 ± 0.015
